Data from PMC12536259.
These are yes or no findings as the source states them, for the method shown. Binding seen in cells or lysates may run through a third protein. Some results given as binding are weak or reduced against the parent protein; the word gives no strength. Tags and fused reporters may be left off the sequences shown.

T1: Ace2-12PK (S. pombe) (UniProt O14258)
T1 sequence: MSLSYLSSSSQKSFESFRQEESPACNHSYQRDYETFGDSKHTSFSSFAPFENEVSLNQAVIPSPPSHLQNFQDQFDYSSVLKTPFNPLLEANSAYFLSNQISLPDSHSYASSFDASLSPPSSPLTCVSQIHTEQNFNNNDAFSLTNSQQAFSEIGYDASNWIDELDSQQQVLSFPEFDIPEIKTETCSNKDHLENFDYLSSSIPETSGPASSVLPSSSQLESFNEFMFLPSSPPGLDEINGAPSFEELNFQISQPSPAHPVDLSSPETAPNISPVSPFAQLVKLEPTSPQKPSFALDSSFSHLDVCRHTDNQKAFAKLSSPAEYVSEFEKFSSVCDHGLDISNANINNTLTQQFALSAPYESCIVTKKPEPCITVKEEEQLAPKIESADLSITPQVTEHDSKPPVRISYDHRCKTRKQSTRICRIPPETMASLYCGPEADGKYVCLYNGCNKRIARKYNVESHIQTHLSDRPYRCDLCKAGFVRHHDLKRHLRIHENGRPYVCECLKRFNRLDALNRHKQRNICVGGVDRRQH

T2: Med8-5FLAG (S. pombe) (UniProt O94646)
T2 sequence: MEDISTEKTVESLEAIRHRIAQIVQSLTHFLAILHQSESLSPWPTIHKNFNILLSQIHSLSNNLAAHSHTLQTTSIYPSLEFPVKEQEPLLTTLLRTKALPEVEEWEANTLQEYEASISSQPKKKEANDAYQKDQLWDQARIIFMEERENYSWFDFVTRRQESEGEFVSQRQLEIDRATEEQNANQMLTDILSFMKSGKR

B1: Med8-5FLAG (protein, UniProt O94646 1-200)
chain: T2 sequence
B2: Ace2-12PK (protein, UniProt O14258 1-533)
chain: T1 sequence

Columns and labels:
Ace2-12PK (S. pombe) = target: T1, Ace2-12PK (S. pombe); test: co-IP; reciprocal: anti-PK or anti-DDDDK (FLAG) antibody on Dyna-G beads, S. pombe crude lysate, overnight at 4°C; IP buffer 50 mM HEPES 7.6, 75 mM KCl, 0.1% NP-40, 20% glycerol, 1 mM EDTA; six washes; detection by immunoblot
Med8-5FLAG (S. pombe) = target: T2, Med8-5FLAG (S. pombe); test: as above

| Binder | binding (Ace2-12PK (S. pombe)) | binding (Med8-5FLAG (S. pombe)) |
| --- | --- | --- |
| B1 | binds | – |
| B2 | – | binds |
